Laboratory results reported in the supplement of paper PMC7752906.
Structures can show the parent of a compound that is named as a salt. Some of the results follow. Single values are uncertain here, since repeats match poorly.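 Test system: Schistosoma mansoni schistosomula, roughly 40 per well, imaged in bright field over time and compared with wells given 0.1% DMSO. Distance read-out: the paper calls a drug a hit when its Mahalanobis distance is at least 2.47, three standard deviations above the DMSO control mean. Degeneracy is the share of worms classified opaque.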

Tested on: Schistosoma mansoni schistosomula
Test: degeneracy (percent of somules classified as degenerate/opaque); higher = more parasite degeneration/death; extreme values may be limits of the assay
Details: 10 µM; 72 h

SMILES	degeneracy [%]
NC(=O)N1c2ccccc2C=Cc2ccccc21 [Carbamazepine]	0
CN(C)CCN(Cc1cccs1)c1ccccn1 [Methapyrilene]	2.86
NC(CO)(CO)CO [Tromethamine]	100
CC(=O)N[C@@H](CC(=O)N[C@@H](CCC(=O)O)C(=O)O)C(=O)O [Spaglumic Acid]	3.03
Cc1ccc(S(=O)(=O)NC(=O)NN2CC3CCCC3C2)cc1 (stereo not given) [Gliclazide]	18.2
CCn1cc(C(=O)O)c(=O)c2cnc(N3CCNCC3)nc21 [Pipemidic Acid]	6.25
NCCS(=O)(=O)O [Taurine]	5.56
O=C(CCCN1CC=C(n2c(=O)[nH]c3ccccc32)CC1)c1ccc(F)cc1 [Droperidol]	0
CCN(CC)CCNC(=O)c1cc(S(C)(=O)=O)ccc1OC [Tiapride]	4.76
C[C@H]1[C@@H](O)O[C@@H]2O[C@@]3(C)CC[C@H]4[C@H](C)CC[C@@H]1[C@@]24OO3 [Artenimol]	6.67
CCCCCC(C)N (stereo not given) [Tuaminoheptane Sulfate]	12.5
CCN(Cc1ccncc1)C(=O)C(CO)c1ccccc1 (stereo not given) [Tropicamide]	12.5
OC(CCN1CCCCC1)(c1ccccc1)C1CC2C=CC1C2 (stereo not given) [Biperiden]	5.45
Cc1ncc([N+](=O)[O-])n1CCO [Metronidazole]	7.14
CN1C2CCCC1CC(NC(=O)c1nn(C)c3ccccc13)C2 (stereo not given) [Granisetron]	5.26
CC(C)N1CCN(c2ccc(OCC3COC(Cn4cncn4)(c4ccc(Cl)cc4Cl)O3)cc2)CC1 (stereo not given) [Terconazole]	7.69
C=CC[C@@H]1/C=C(\C)C[C@H](C)C[C@H](OC)[C@H]2O[C@@](O)(C(=O)C(=O)N3CCCC[C@H]3C(=O)O[C@H](/C(C)=C/[C@@H]3CC[C@@H](O)[C@H](OC)C3)[C@H](C)[C@@H](O)CC1=O)[C@H](C)C[C@@H]2OC [Tacrolimus]	23.5
COc1ccc2[nH]cc(CCNC(C)=O)c2c1 [Melatonin]	15.4
Cc1ccc(C(=O)c2cc(O)c(O)c([N+](=O)[O-])c2)cc1 [Tolcapone]	3.57
NC[C@H]1O[C@H](O[C@H]2[C@H](O[C@@H]3O[C@H](CO)[C@@H](O)[C@H]3O)[C@@H](O)[C@H](N)C[C@@H]2N)[C@H](N)[C@@H](O)[C@@H]1O [Ribostamycin Sulfate]	2.13
CCCC(=O)Nc1ncnc2c1ncn2[C@@H]1O[C@@H]2COP(=O)(O)O[C@H]2[C@H]1OC(=O)CCC [Bucladesine]	10.3
CC1=CC(=O)NS(=O)(=O)O1 [Acesulfame Potassium]	15
CN1CCCC(n2nc(Cc3ccc(Cl)cc3)c3ccccc3c2=O)CC1 (stereo not given) [azelastine]	4.76
O=C(CNC(=O)c1ccc(Cl)cc1)NO [Benurestat]	4.76
CN1CCCCC1CCN1c2ccccc2Sc2ccc([S+](C)[O-])cc21 (stereo not given) [Mesoridazine Besylate]	2.22

Rewritten in markdown: part of the list above.

| SMILES | degeneracy [%] |
| --- | --- |
| CC(=O)N[C@@H](CC(=O)N[C@@H](CCC(=O)O)C(=O)O)C(=O)O [Spaglumic Acid] | 3.03 |
| Cc1ccc(S(=O)(=O)NC(=O)NN2CC3CCCC3C2)cc1 (stereo not given) [Gliclazide] | 18.2 |

(next part)

SMILES	degeneracy [%]
O=C(O[C@H]1CN2CCC1CC2)N1CCc2ccccc2[C@@H]1c1ccccc1 [Solifenacin Succinate]	8.33
CO[C@@H]1[C@@H](OC(N)=O)[C@@H](O)[C@H](Oc2ccc3c(O)c(NC(=O)c4ccc(O)c(CC=C(C)C)c4)c(=O)oc3c2C)OC1(C)C [Novobiocin Sodium]	2.63
CC(=O)Oc1cccc(O)c1 [Resorcinol Monoacetate]	0
CCN1CCN(C(=O)N[C@@H](C(=O)N[C@@H]2C(=O)N3[C@@H]2SC(C)(C)[C@@H]3C(=O)O)c2ccccc2)C(=O)C1=O [Piperacillin]	8.11
CCN1CCN(C(=O)N[C@@H](C(=O)N[C@@H]2C(=O)N3[C@@H]2SC(C)(C)[C@@H]3C(=O)O)c2ccccc2)C(=O)C1=O [Piperacillin Sodium]	2.63
OCCN1CCN(CCCN2c3ccccc3Sc3ccc(Cl)cc32)CC1 [perphenazine]	100
CN(C)CCc1c[nH]c2ccc(Cn3cncn3)cc12 [Rizatriptan Benzoate]	6.82
Nc1ccc(S(=O)(=O)c2ccc(N)cc2)cc1 [Dapsone]	33.3
N=C(N)NCC1COC2(CCCCC2)O1 (stereo not given) [Guanadrel Sulfate]	4.76
CC1(C)OC(=O)NC1=O [Dimethadione]	5.88
Nc1ccc(C(=O)NCC(=O)O)cc1 [Aminohippuric Acid]	0
COc1ccc(NS(=O)(=O)c2ccc(N)cc2)nn1 [Sulfamethoxypyridazine]	17.2
CCC[C@H](N[C@@H](C)C(=O)N1[C@H](C(=O)O)C[C@@H]2CCCC[C@@H]21)C(=O)OCC [Perindopril Erbumine]	10
N=C(N)NC(=N)N1CCOCC1 [Moroxydine Hydrochloride]	3.7
CC(=O)Oc1cccc2c1C(=O)c1c(OC(C)=O)cc(C(=O)O)cc1C2=O [Diacerin]	2.27
C=C1C[C@H]2[C@@H]3C=C(C)C4=CC(=O)CC[C@]4(C)[C@H]3CC[C@]2(C)[C@@]1(OC(C)=O)C(C)=O [Melengestrol Acetate]	31
CCN(CC)CCc1nc(-c2ccccc2)no1 [Oxolamine Citrate]	15.9
CC(C)NC[C@@H](O)COc1cccc2ccccc12 [Dexpropranolol Hydrochloride]	17.1
CCc1cn([C@H]2C[C@H](O)[C@@H](CO)O2)c(=O)[nH]c1=O [Edoxudine]	8.16
O=S(=O)(O)NC1CCCCC1 [Cyclamic Acid]	6.67
CN(C)[C@@H]1C(O)=C(C(=O)NCN2CCCC2)C(=O)[C@@]2(O)C(O)=C3C(=O)c4c(O)cccc4[C@@](C)(O)[C@H]3C[C@@H]12 [Rolitetracycline]	3.23
CC(NCCC(c1ccccc1)c1ccccc1)c1ccccc1 (stereo not given) [Fendiline Hydrochloride]	100
C[C@H](CCC(=O)O)[C@H]1CC[C@H]2[C@@H]3[C@H](O)C[C@@H]4C[C@H](O)CC[C@]4(C)[C@H]3CC[C@]12C [Chenodiol]	19.2
NCC(O)CC(=O)O (stereo not given) [Aminohydroxybutyric Acid]	5.13
CC(=O)OCC(CCn1cnc2cnc(N)nc21)COC(C)=O [Famciclovir]	8.11
